These are yes or no findings as the source states them, for the method shown. In cells and extracts the contact can be indirect. Some entries that bind do so weakly or less than the wild type.

The chains behind the UniProt entries cited, without tags or fusion partners. Residues count along the entry.
UniProt Q9Y6N7, residues 26-1651: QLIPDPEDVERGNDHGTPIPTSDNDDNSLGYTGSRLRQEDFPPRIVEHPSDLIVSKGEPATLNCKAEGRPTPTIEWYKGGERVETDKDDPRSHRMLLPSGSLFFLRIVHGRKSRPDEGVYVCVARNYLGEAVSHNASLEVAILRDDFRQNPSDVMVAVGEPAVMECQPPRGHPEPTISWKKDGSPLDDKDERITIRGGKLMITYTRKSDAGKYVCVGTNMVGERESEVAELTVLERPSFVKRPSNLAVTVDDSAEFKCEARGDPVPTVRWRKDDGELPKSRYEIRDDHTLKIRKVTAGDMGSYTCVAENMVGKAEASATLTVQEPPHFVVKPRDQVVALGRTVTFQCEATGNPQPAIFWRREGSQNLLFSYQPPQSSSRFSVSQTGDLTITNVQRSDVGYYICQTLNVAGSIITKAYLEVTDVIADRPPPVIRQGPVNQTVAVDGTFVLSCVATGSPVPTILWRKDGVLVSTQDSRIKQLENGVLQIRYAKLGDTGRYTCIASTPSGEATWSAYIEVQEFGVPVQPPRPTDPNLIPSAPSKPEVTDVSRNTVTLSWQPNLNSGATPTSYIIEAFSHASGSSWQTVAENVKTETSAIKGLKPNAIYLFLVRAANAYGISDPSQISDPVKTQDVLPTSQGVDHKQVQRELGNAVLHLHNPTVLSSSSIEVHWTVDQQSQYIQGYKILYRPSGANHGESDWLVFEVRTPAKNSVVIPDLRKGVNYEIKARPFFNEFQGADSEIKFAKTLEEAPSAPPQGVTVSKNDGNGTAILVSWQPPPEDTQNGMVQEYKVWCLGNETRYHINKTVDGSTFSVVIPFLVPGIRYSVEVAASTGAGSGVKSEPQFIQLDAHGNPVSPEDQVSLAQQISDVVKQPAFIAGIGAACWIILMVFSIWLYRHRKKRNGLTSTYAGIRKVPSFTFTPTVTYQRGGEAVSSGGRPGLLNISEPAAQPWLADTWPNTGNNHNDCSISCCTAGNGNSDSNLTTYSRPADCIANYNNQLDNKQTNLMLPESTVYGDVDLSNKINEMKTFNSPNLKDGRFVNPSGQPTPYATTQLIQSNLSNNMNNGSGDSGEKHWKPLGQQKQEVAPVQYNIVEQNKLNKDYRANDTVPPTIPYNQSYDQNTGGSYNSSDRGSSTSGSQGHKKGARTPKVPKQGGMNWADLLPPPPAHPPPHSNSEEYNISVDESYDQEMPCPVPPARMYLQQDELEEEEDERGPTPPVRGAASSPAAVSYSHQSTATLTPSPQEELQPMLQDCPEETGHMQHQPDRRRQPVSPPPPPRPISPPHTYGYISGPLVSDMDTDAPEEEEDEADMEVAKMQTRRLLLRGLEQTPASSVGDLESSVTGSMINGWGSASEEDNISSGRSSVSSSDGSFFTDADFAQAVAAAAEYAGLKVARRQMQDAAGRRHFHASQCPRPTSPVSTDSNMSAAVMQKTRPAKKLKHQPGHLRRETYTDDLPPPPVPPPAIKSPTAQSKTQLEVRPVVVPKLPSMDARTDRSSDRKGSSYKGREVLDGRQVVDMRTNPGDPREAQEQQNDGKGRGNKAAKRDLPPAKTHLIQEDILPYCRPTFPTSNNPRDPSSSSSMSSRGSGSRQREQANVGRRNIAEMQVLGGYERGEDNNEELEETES

For this assay, the target named is T1, Flightless-1 (Fli1) (human (endogenous in monocyte-derived dendritic cells)) (UniProt Q13045).
T1 sequence: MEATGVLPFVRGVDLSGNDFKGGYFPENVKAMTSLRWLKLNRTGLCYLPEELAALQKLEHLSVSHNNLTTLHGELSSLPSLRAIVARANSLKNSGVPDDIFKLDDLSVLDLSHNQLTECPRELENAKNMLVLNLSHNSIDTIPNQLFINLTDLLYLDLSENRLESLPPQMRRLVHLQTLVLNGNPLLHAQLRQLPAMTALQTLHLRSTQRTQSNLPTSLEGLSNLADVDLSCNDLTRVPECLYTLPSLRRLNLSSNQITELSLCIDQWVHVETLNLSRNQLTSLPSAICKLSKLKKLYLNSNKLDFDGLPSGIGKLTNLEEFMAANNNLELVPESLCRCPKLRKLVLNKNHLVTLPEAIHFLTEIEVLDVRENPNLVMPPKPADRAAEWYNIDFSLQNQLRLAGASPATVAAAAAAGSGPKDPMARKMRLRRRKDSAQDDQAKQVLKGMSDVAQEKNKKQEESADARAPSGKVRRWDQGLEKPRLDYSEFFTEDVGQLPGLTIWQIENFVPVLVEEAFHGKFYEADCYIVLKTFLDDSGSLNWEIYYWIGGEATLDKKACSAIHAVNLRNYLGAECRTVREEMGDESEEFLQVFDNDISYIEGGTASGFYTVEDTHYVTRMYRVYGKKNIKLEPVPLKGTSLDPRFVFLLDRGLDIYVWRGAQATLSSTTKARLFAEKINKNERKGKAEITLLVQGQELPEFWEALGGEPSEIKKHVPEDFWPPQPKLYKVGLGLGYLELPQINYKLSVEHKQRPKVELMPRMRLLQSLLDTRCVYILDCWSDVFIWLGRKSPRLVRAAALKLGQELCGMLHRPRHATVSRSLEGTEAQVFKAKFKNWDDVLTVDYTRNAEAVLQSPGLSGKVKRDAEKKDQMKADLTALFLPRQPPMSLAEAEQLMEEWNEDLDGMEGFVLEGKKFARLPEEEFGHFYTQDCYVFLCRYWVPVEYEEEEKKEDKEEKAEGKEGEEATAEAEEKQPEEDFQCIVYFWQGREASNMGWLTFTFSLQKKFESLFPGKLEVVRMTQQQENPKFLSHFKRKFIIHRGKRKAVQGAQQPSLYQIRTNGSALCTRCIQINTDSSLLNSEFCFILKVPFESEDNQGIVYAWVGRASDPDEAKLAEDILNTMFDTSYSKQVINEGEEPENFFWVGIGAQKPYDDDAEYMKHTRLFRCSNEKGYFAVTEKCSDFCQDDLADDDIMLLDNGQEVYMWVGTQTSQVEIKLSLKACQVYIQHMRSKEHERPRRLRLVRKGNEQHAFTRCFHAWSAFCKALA
In words: co-IP; endogenous proteins from DC lysates (cell lysis buffer, Cell Signaling Technology), Western blot; DCs untreated or transduced with control (VC) or Slit2N adenovirus, with or without HIV-1 BaL (1 h or overnight).

As to “Roundabout receptor 1 (Robo1) (from UniProt Q9Y6N7 26-1651)”, the binding result was “binds”.

These data come from publication PMC4652184.
